Measured values taken from PubChem BioAssay AID504834 (National Center for Advancing Translational Sciences (NCATS), 2011).
The whole screen tested about 320,000 compounds, of which about 22,000 (6.9%) were called active. The inconclusive results got no clear call from the source; some entries with a clear call stand among them for comparison. The call rests on the fitted dose curve; in most records, active means well fitted inhibition curve with a large enough effect; inconclusive means small, poorly fitted or top-dose-only effect, or another doubt; inactive means no such curve, though single readings can be large or run the other way. Potencies of inconclusive entries are doubtful fits and often do not repeat.

Experiment: Primary qHTS for delayed death inhibitors of the malarial parasite plastid, 96 hour incubation
Details: P. falciparum luciferase reporter growth; series mostly up to 28.7 µM
Outline: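 P. falciparum expressing integrated firefly luciferase grown in erythrocytes (2% hematocrit, 0.05% parasitemia final) with compounds for 96 hours at 37 C, 5% CO2. Growth inhibition read as loss of luminescence after adding luciferase detection reagent.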
On the % scale 0 is the no-effect control and ±100 the full control effect; potency means the concentration at half of the fitted maximal effect.

Row | SMILES | Potency | activity change, negative = inhibition
1 | CC12CCCCC1(O)[N+](=O)C1=C(CCCC1)N2[O-] (stereo unspecified) | active: 4.15 µM | 
2 | COc1ccc(/C=N/NC(=O)c2cc(-c3ccccc3OC)nc3ccccc23)cc1COC(C)=O | active: 1.85 µM | 
3 | C[C@@H](C(=O)N1CCN(C(=O)OC(C)(C)C)CC1)n1cc(CCC(=O)O)nn1 | inactive | 
4 | Cc1ccc(S(=O)(=O)NC(C)C(c2cccs2)N2CCN(c3ccccc3)CC2)cc1 (stereo unspecified) | inconclusive: 14.7 µM [inhibitor, single point] | 
5 | C/C(=N\Nc1ccc(F)cc1F)c1ccccc1O | inactive | 
6 | CCCn1c(NCc2cccs2)nc2ccccc21 | inconclusive: 9.28 µM [inhibitor, partial curve, poor fit] | 
7 | O=C(COc1ccccc1)Nc1ccc2c(c1)nc1n2CCSC1 |  | inactive: 34.3% [at 5.75 µM]
8 | COC(=O)c1ccccc1Oc1nc(Cl)cc(OC)n1 | inconclusive: 5.86 µM [inhibitor, single point] | 
9 | O=C(NCCc1c[nH]c2ccccc12)/C(=C/c1cccnc1)NC(=O)c1ccco1 | inconclusive: 18.5 µM [inhibitor, single point] | 
10 | C[C@@H](C(=O)NCc1c(F)cccc1Cl)N1C(=O)N2CCc3c([nH]c4ccccc34)[C@@]2(C)C1=O | inconclusive: 18.5 µM [inhibitor, single point] | 
11 | CC(=O)Nc1nc2ccc(Br)cc2s1 | inconclusive: 2.94 µM [inhibitor, full curve, poor fit] | 
12 | COc1ccc(C2=NN(CC(=O)NCc3ccco3)C(=O)CC2)cc1 | inactive | 
13 | N#Cc1c(NC(=O)C2CCCO2)sc2c1CCCCCC2 (stereo unspecified) | inactive | 
14 | CSc1nncc(=O)[nH]1 | inconclusive: 11.7 µM [inhibitor, single point] | 
15 | COC(=O)c1cnn2c(C(F)(F)F)cc(-c3ccccc3)nc12 | inconclusive: 10.4 µM [inhibitor, single point] | 
16 | COc1ccc2sc(-c3ccc(N(C)C)cc3)c(C#CC(C)(C)O)c2c1 | inconclusive: 4.15 µM [inhibitor, single point] | 
17 | CC(=O)NC(C(=O)c1ccccc1)C(=O)c1ccccc1 | inactive | 
18 | COc1cc(/C=C2/SC(=S)N(CC(=O)NC(C)(C)C)C2=O)cc(OC)c1OC | inactive | 
19 | N#Cc1ccc(C(=O)Nc2cc(S(=O)(=O)Nc3ccc(Cl)cc3)ccc2N2CCCCC2)cc1 | active: 10.4 µM | 
20 | C[C@H](NC(=O)C1CCN(S(=O)(=O)c2ccccc2)CC1)C(=O)NCc1ccccc1 | inconclusive: 18.5 µM [inhibitor, single point] | 
21 | COc1ccc2c(c1)C(=NNC(=O)c1ccccn1)c1cc(OC)ccc1-2 | inconclusive: 5.22 µM [inhibitor, partial curve] | 

Sorted by count of non-hydrogen atoms (largest number first): 3 of the compounds above.
Row | SMILES | Potency | activity change, negative = inhibition
18 | COc1cc(/C=C2/SC(=S)N(CC(=O)NC(C)(C)C)C2=O)cc(OC)c1OC | inactive | 
17 | CC(=O)NC(C(=O)c1ccccc1)C(=O)c1ccccc1 | inactive | 
14 | CSc1nncc(=O)[nH]1 | inconclusive: 11.7 µM [inhibitor, single point] | 
